For one molecule, binding results are on record in article PMC4906169.

Assay in all cases: split reporter; BiFC with Yn/Yc halves of VENUS fused to the N-termini; transient co-expression in N. benthamiana epidermal leaf cells, imaged by confocal microscopy 62 h after infiltration
Test [1] concerns the target T1, Cellulose synthase CesA1, BiFC fusion (Arabidopsis thaliana) (UniProt O48946).
T1 sequence: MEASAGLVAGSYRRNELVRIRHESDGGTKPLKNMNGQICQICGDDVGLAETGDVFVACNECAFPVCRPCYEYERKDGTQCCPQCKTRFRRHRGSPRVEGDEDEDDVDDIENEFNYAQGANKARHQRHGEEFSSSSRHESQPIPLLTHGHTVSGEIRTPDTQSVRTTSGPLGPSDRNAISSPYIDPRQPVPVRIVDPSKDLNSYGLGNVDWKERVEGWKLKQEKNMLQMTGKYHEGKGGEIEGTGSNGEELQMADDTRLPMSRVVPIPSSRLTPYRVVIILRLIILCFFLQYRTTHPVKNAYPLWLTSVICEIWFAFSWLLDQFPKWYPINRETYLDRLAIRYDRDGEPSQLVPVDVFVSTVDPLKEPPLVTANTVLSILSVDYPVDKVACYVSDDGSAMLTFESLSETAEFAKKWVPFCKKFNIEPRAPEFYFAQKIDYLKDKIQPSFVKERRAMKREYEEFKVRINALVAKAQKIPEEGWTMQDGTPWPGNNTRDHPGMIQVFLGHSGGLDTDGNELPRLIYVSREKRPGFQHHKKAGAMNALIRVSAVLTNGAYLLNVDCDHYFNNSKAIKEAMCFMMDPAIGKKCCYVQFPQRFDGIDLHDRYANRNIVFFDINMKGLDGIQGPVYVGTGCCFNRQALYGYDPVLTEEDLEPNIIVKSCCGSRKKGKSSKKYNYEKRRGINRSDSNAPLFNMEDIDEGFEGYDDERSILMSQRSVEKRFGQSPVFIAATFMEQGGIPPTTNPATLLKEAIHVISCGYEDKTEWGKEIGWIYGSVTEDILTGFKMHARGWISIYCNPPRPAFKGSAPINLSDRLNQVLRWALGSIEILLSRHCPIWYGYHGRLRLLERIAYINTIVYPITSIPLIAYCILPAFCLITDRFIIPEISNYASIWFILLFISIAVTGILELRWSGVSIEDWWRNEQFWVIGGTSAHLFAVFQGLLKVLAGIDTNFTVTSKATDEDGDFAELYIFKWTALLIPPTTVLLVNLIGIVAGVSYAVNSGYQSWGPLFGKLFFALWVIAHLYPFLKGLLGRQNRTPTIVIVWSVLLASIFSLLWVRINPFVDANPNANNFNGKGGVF

For test [2], the target named is T2, Cellulose synthase CesA6, BiFC fusion (Arabidopsis thaliana) (UniProt Q94JQ6).
T2 sequence: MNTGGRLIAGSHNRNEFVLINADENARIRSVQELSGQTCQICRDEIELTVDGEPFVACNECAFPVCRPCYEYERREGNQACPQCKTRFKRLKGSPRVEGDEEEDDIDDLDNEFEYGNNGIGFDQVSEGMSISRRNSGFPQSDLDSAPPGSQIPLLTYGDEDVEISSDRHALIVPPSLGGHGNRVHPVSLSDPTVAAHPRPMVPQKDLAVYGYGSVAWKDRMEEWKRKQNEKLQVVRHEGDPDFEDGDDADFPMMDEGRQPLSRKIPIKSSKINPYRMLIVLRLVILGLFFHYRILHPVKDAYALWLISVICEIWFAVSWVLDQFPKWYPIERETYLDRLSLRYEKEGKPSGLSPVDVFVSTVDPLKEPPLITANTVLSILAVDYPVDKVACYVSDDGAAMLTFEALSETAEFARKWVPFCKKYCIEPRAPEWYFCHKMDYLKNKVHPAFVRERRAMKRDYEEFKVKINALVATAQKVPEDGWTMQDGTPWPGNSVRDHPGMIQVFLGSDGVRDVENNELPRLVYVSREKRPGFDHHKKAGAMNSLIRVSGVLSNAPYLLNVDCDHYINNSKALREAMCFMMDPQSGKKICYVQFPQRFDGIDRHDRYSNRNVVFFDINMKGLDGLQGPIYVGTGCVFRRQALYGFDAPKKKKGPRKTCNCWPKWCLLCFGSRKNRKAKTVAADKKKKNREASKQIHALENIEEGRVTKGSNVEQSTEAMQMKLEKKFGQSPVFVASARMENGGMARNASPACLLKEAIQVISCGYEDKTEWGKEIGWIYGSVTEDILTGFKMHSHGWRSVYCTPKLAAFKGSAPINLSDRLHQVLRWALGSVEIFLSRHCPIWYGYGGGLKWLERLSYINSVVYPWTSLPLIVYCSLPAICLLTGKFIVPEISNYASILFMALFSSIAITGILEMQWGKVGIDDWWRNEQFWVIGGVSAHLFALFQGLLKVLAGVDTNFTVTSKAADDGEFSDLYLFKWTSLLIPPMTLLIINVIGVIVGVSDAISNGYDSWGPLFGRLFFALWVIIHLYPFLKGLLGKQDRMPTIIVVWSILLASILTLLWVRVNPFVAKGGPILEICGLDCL

The target of test [3] is Got1p Arabidopsis homologue, BiFC fusion (Arabidopsis thaliana) (UniProt Q6NMM1).

These are yes or no findings as the source states them, for the method shown. Binding seen in cells or lysates may run through a third protein. Some binding calls cover weakened binding; strength is not graded here. Sequences can lack the tags named with a protein.

B1: Got1p Arabidopsis homologue, BiFC fusion (protein, UniProt Q6NMM1 1-140)
chain: MASLEMNDLKKIGLGLTGFGVFFTFLGVIFVFDKGLIAMGNILFLAGVTLTIGINPAIQFFTKRQNFKGTISFGLGFLLVVFGWPIFGLLLESYGFLVLFSGFWPTLAVFLQRIPLLGWLLQQPYIRSLLDRYRGRRVPV
Turning to B1, the binding result was “no binding” in test [1], “no binding” in test [2] and “binds” in test [3].
